PubChem BioAssay AID1671195, Yale University, 2021

Purpose: 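Knockdowns that increase or decrease uptake of fluorescent LDL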 (primary screen)
Cells: human Huh7 hepatoma cells
Reagents: siRNA pool against human genes, 18 nM
Duration: about 2 to 2.5 days of knockdown, then 8 h LDL uptake
Conditions: DiI-labelled LDL at 30 µg/ml for 8 h, in lipoprotein-deficient serum medium
Read-out: 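Per-cell DiI-LDL intensity by automated imaging; well means scaled to the plate median and given as a robust z-score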
Scale: robust z-score: higher = more LDL uptake after knockdown
Active means: 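a gene counts as active if at least two replicate z-scores exceed ±2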
In all, the deposit lists about 22,000 reagents; shown is a part drawn at random. Over the whole deposit, about 1,510 (6.9%) were called active. 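Active includes knockdowns raising or lowering LDL uptake; positive z-scores mean more uptake, negative mean less.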 A number with no mark means an inactive call. Reagents against one gene are numbered here. No sequences are given here.

| gene symbol | reagent | robust z-score, replicate 1 | robust z-score, replicate 2 | robust z-score, replicate 3 |
| --- | --- | --- | --- | --- |
| ALDH3A1 (GeneID 218) | 1 | 0.601 | 0.418 | -0.412 |
| ACTMAP (GeneID 284325) | 1 | 0.769 | 0.952 | 1.94 |
| ENHO (GeneID 375704) | 1 | -0.941 | -0.39 | -0.828 |
| AGMAT (GeneID 79814) | 1 | 0.251 | 0.0991 | 0.754 |
| CPB2 (GeneID 1361) | 1 | -0.353 | -0.713 | -0.811 |
| WDR48 (GeneID 57599) | 1 | 0.568 | 1.84 | 2.51 |
| PLAA (GeneID 9373) | 1 | -0.502 | -1.33 | -0.499 |
| LOXL4 (GeneID 84171) | 1 | 0.208 | 0.758 | 0.621 |
| RPS15A (GeneID 6210) | 1 | 0.391 | 0.038 | 1.15 |
| COPS4 (GeneID 51138) | 1 | -0.331 | -1.27 | 0.0933 |
| RBM4 (GeneID 5936) | 1 | -2.04 | -1.51 | -1.68 |
| DPH7 (GeneID 92715) | 1 | 2.35 | 0.442 | 0.308 |
| TCEAL1 (GeneID 9338) | 1 | 1.07 | 1.73 | 1.77 |
| PARP15 (GeneID 165631) | 1 | 0.731 | 0.442 | 2.35 |
| CYP7B1 (GeneID 9420) | 1 | -0.202 | 0.388 | 0.0331 |
| ZNF853 (GeneID 54753) | 1 | 0.378 | 1.37 | 1.36 |
| ZNF853 (GeneID 54753) | 2 | 1.21 | 0.0898 | 0.465 |
| IFITM1 (GeneID 8519) | 1 | 3.31 (active) | 2.18 | 3.78 |
| FBXO41 (GeneID 150726) | 1 | -0.149 | 0.184 | -1.14 |
| LIPH (GeneID 200879) | 1 | -0.0142 | 0.609 | 0.0352 |

Continued; the last 6 above are carried over.
| gene symbol | reagent | robust z-score, replicate 1 | robust z-score, replicate 2 | robust z-score, replicate 3 |
| --- | --- | --- | --- | --- |
| CYP7B1 (GeneID 9420) | 1 | -0.202 | 0.388 | 0.0331 |
| ZNF853 (GeneID 54753) | 1 | 0.378 | 1.37 | 1.36 |
| ZNF853 (GeneID 54753) | 2 | 1.21 | 0.0898 | 0.465 |
| IFITM1 (GeneID 8519) | 1 | 3.31 (active) | 2.18 | 3.78 |
| FBXO41 (GeneID 150726) | 1 | -0.149 | 0.184 | -1.14 |
| LIPH (GeneID 200879) | 1 | -0.0142 | 0.609 | 0.0352 |
| SCAF11 (GeneID 9169) | 1 | 0.539 | -0.401 | 0.212 |
| ABCA12 (GeneID 26154) | 1 | 0.128 | 0.948 | 0.672 |
| FLT3LG (GeneID 2323) | 1 | -1.26 | -0.848 | -0.853 |
| KLK4 (GeneID 9622) | 1 | 0.288 | -0.224 | 0.3 |
| TACC1 (GeneID 6867) | 1 | 0.907 | 0.711 | 0.175 |
| OR9Q1 (GeneID 219956) | 1 | 1.84 | 1.27 | 1.42 |
| NUTF2P4 (GeneID 128322) | 1 | 1.46 | 2.01 | 1.82 |
| ARHGAP20 (GeneID 57569) | 1 | -0.977 | -0.963 | 0.839 |
| GALNS (GeneID 2588) | 1 | 1.57 | 1.24 | 1.41 |
| SLCO4A1 (GeneID 28231) | 1 | 0.233 | -0.179 | 0.591 |
| NTRK3 (GeneID 4916) | 1 | -1.55 | -0.618 | -2.29 |
| ODF2L (GeneID 57489) | 1 | 0.175 | -0.951 | 0.0802 |
| RABL2B (GeneID 11158) | 1 | 0.462 | 0.817 | -0.185 |
| LOC441494 (retired record) (GeneID 441494) | 1 | 1.66 | 0.813 | 0.493 |
| DDX52 (GeneID 11056) | 1 | 0.789 | 1.6 | 3.44 |
| PABPC4 (GeneID 8761) | 1 | -0.632 | -0.877 | -0.944 |
| LHFPL5 (GeneID 222662) | 1 | 0.227 | -0.0215 | 0.483 |
| GTF3C1 (GeneID 2975) | 1 | -0.866 | -0.665 | -0.531 |
| MAP3K7 (GeneID 6885) | 1 | -0.212 | -0.0852 | 0.196 |
| ZNF226 (GeneID 7769) | 1 | 0.681 | 0.0837 | 0.0568 |
| SCAND3 (GeneID 114821) | 1 | -0.402 | -1.65 | -1.18 |
| ERBIN (GeneID 55914) | 1 | 0.0633 | -0.254 | 0.618 |
| GEMIN4 (GeneID 50628) | 1 | -0.462 | -0.485 | -0.217 |
| POLR2G (GeneID 5436) | 1 | -1.27 | -1.18 | -1.32 |
| ADGRF1 (GeneID 266977) | 1 | -0.226 | 1.33 | 0.974 |
| CD1A (GeneID 909) | 1 | 1.66 | 1.92 | -0.388 |
